In publication PMC7819943, “Rice protein-binding microarrays: a tool to detect cis-acting elements near promoter regions in rice”:
Some of the results follow.

Chains of the proteins cited; added tags and fusions are not shown.
UniProt Q0JBA9, entry or part of it: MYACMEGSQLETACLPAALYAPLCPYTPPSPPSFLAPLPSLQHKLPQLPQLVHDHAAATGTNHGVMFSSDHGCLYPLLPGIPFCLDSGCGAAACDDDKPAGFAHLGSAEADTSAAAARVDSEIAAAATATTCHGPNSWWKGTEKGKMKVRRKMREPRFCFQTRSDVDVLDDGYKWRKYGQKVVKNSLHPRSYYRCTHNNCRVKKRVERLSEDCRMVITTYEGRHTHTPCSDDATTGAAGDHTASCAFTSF

What follows are sequences tested against OsWRKY34 (Oryza sativa, UniProt Q0JBA9 1-250) (assay: protein-binding microarray (RPBM); PBS, 2% BSA, 51.3 ng/ul salmon testes DNA, 50 uM zinc acetate, 200 nM TF, 25 C, 1 h; high values mean tight binding). Conditions: protein: recombinant; tags: N-terminal polyhistidine and DsRed monomer fusion (pET32a); label: CyDye5-dUTP incorporated in the synthesized complementary strand; 3' TTTTT single-stranded linker to array surface; dsDNA, one strand shown.
Outline: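 Transcription factors were made in E. coli BL21-CodonPlus as N-terminal fusions to a polyhistidine tag and DsRed, then purified on Ni–NTA. After primer extension with Cy5-dUTP and blocking with 2% BSA, a custom Agilent array was exposed for 1 h at 25 °C to 200 nM protein in PBS, 2% BSA, salmon testes DNA and 50 µM zinc acetate. Washed arrays were scanned on an Axon 4000B, and the binding signal is per-feature fluorescence intensity in arbitrary units.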

| Sequence | binding signal |
| --- | --- |
| CGCGCTTGTGTTTCATGACTATAAGTTACTTATATACAAGCGGAGTCACCTAGTGCAG | 8220 fluorescence intensity (a.u.) |
| GCTTGAATTTCTAAAAAGTATCTTTTTCCTATGTATCATTCGGAGTCACCTAGTGCAG | 9280 fluorescence intensity (a.u.) |
| TCTCCGTCTCTTTTACCTCAGTCTCGCGTATACCCTAGCACGGAGTCACCTAGTGCAG | 11600 fluorescence intensity (a.u.) |
| ACGAAGGATTGGTTTGGTCGCTTTCTCGGTTGCTGCTCGGCGGAGTCACCTAGTGCAG | 9230 fluorescence intensity (a.u.) |
| ACCAATGCATTCTTTCGAAAACTGTTTATAGGGTAGGGGTCGGAGTCACCTAGTGCAG | 11400 fluorescence intensity (a.u.) |
| TCTACTTTTTCTCTTCACTGGGTTGGGATTTGGTGTCTGCCGGAGTCACCTAGTGCAG | 9390 fluorescence intensity (a.u.) |
| CCTTATATCCATCAGCTCTTTACAACACCTTAATCCTACACGGAGTCACCTAGTGCAG | 9930 fluorescence intensity (a.u.) |
| ATGGTTGGTTCTTGTGTGTCCCTAAGCGTGAAAAAATATCCGGAGTCACCTAGTGCAG | 12400 fluorescence intensity (a.u.) |
| CCGATGGTTTTCTTTTGACCCTTTTTGTCTTCATTAACACCGGAGTCACCTAGTGCAG | 11000 fluorescence intensity (a.u.) |
| TCTCAAACAATTGCCTCTTCCTACGACGACTGGTGTGTTTCGGAGTCACCTAGTGCAG | 9170 fluorescence intensity (a.u.) |
| GGCGGCCCAGGTACCGCGCGACTCGTTTTTTTTTTCCCCTCGGAGTCACCTAGTGCAG | 9900 fluorescence intensity (a.u.) |
| ATCCCTTTGCCTAGTCAGGCTTCAACTCGATAGTCTTCTCCGGAGTCACCTAGTGCAG | 8300 fluorescence intensity (a.u.) |
| TCCATAAACGTTTTATCACATGTGCATCTATTTTGCCATGCGGAGTCACCTAGTGCAG | 8760 fluorescence intensity (a.u.) |
| CCCACGATAAAATTTTCATGATACAGTTATCCTGTCACGACGGAGTCACCTAGTGCAG | 9220 fluorescence intensity (a.u.) |
| CTGCCTGCGCCGTCGGCCGACTCCTCGCTACTTCGCCCGCCGGAGTCACCTAGTGCAG | 9300 fluorescence intensity (a.u.) |
| TCTTTTAGGGTTTGGTTTCCTTGCCCTCTCCCGCCCTGGGCGGAGTCACCTAGTGCAG | 8310 fluorescence intensity (a.u.) |
| AATTGTATACCGGCATGGACACTAGTCTCTTTTTCAATATCGGAGTCACCTAGTGCAG | 11300 fluorescence intensity (a.u.) |
| CACTCTAGACTCTACCCATTCCCATTACCCACGCCGCTTTCGGAGTCACCTAGTGCAG | 9400 fluorescence intensity (a.u.) |
| GTTTCTTCACCTACTTCTACTTTTCAGCCAATTATGTTTTCGGAGTCACCTAGTGCAG | 8940 fluorescence intensity (a.u.) |
| GCTAAGGGTATGGATTATAGTGAGGTGTGGATATTTTGACCGGAGTCACCTAGTGCAG | 9790 fluorescence intensity (a.u.) |
| AAAGTGTGACTTGTCTATCCATGTTTTGCTGGCACCATTTCGGAGTCACCTAGTGCAG | 10200 fluorescence intensity (a.u.) |
| CCATGGATGCCATCCAGTCGCGCCCGCTGCTGTCGCTCGCCGGAGTCACCTAGTGCAG | 9320 fluorescence intensity (a.u.) |
| ATTCACCGAAGCGACGCTCTCCGTACCTCCACTGACATGCCGGAGTCACCTAGTGCAG | 8460 fluorescence intensity (a.u.) |
| TCCTGCTCTTCATCGTGTTTTATGTGAACTTGTCGTATGCCGGAGTCACCTAGTGCAG | 8570 fluorescence intensity (a.u.) |
| GGTTTCTGTATACTCCCTCTGTTTCAGGTTATAAGATATTCGGAGTCACCTAGTGCAG | 8040 fluorescence intensity (a.u.) |
| GAGGTGGGGTGGCTTAGTGACCTCGTGTCGTAGATTGGATCGGAGTCACCTAGTGCAG | 10500 fluorescence intensity (a.u.) |
| ACCATTATCCCCACCTTGTCCACAAGTCCAAACACATATCCGGAGTCACCTAGTGCAG | 8510 fluorescence intensity (a.u.) |

In another format: entries from further up
Sequence,binding signal
CACTCTAGACTCTACCCATTCCCATTACCCACGCCGCTTTCGGAGTCACCTAGTGCAG,9400 fluorescence intensity (a.u.)
GTTTCTTCACCTACTTCTACTTTTCAGCCAATTATGTTTTCGGAGTCACCTAGTGCAG,8940 fluorescence intensity (a.u.)
GCTAAGGGTATGGATTATAGTGAGGTGTGGATATTTTGACCGGAGTCACCTAGTGCAG,9790 fluorescence intensity (a.u.)

Continuation:

| Sequence | binding signal |
| --- | --- |
| CTACCTCCATATTTTAATGTATGACGCCGTTGACTTTTTGCGGAGTCACCTAGTGCAG | 37500 fluorescence intensity (a.u.) |
| GCGGACCGCGCCATCCCACTTCCGCCTCGCGCCTCACTCGCGGAGTCACCTAGTGCAG | 8580 fluorescence intensity (a.u.) |
| CTGGTGTTATTCGTTTCTCTGTTGCAAAACGGGTTGTTTTCGGAGTCACCTAGTGCAG | 9980 fluorescence intensity (a.u.) |
| ATTCTCTGCTTGTTTGGCCCATCCGCCCCTACAGCATGGGCGGAGTCACCTAGTGCAG | 10300 fluorescence intensity (a.u.) |
| ACTCCCTCCATTTTTTTAATTGACGACGCCATTGACTTTTCGGAGTCACCTAGTGCAG | 9350 fluorescence intensity (a.u.) |
| CCTACAGTCAAGCCCATTCTGTTTTACCGATTGCAATGCTCGGAGTCACCTAGTGCAG | 9000 fluorescence intensity (a.u.) |
| CTCCTTCGCCGCCACTCCACCGGTCTCACGGTCGCTGCCACGGAGTCACCTAGTGCAG | 9800 fluorescence intensity (a.u.) |
| CAAGTCGTTCGTTGTACTCTCGCTCGCCGCCGTGCTGCTCCGGAGTCACCTAGTGCAG | 8550 fluorescence intensity (a.u.) |
| CAACCCTCTTATGTTGACCCGTAAACCCTGTTATGCATTACGGAGTCACCTAGTGCAG | 8340 fluorescence intensity (a.u.) |
| GGATCGGCAATGTCAGCAGCTGCTCACTTGCTCGCATGCCCGGAGTCACCTAGTGCAG | 8330 fluorescence intensity (a.u.) |
| GGGGTGCTGTTGCTGCGTGCCTGCGTGTACGTCGTTTGGTCGGAGTCACCTAGTGCAG | 10300 fluorescence intensity (a.u.) |
| GACTTCTCTCGCTGGTTGGTTGGTTTCTTGATCCGCCATGCGGAGTCACCTAGTGCAG | 13100 fluorescence intensity (a.u.) |
| AGGCAGGGTGGCGGCGGGCTCTTCTCTTCTCTCTCCCATGCGGAGTCACCTAGTGCAG | 9950 fluorescence intensity (a.u.) |
| GATTTACCCTACTCGTGATAATACTTGCTAAATATATATTCGGAGTCACCTAGTGCAG | 9910 fluorescence intensity (a.u.) |
| GCACTTTGAACCGCCCTCACACACCCTGCACCCACTGCTCCGGAGTCACCTAGTGCAG | 10700 fluorescence intensity (a.u.) |
| GCATTCATATTTCTCTCCACTCGTAATCCCATATAATTCACGGAGTCACCTAGTGCAG | 8700 fluorescence intensity (a.u.) |
| ACATGGATACCCACGGCTATACTTATTTTGGGACCGAGGTCGGAGTCACCTAGTGCAG | 8430 fluorescence intensity (a.u.) |
| TCAAGTTTGAGTCCTTTTGGGCGCGCCTTGACGGTTTTCACGGAGTCACCTAGTGCAG | 8620 fluorescence intensity (a.u.) |
| TTTCCACCGCATTTCCAAGGCTCCTCGTCCATGTCCTCGTCGGAGTCACCTAGTGCAG | 8580 fluorescence intensity (a.u.) |
| CTCACTCGCTTGCGCTTCACCTCGCGGCATCGACTTCCTACGGAGTCACCTAGTGCAG | 11500 fluorescence intensity (a.u.) |
| AATTTTTCTCCAGCTGTGCAATATACACACACATTTGCGCCGGAGTCACCTAGTGCAG | 8420 fluorescence intensity (a.u.) |
| GTGGCTTTTTGTGGTTTATGCACACCATTGGCAGCTGCTACGGAGTCACCTAGTGCAG | 8720 fluorescence intensity (a.u.) |
| TTCGATCACGCAATTCACATTTGCTACTTGGAGGCACATCCGGAGTCACCTAGTGCAG | 8250 fluorescence intensity (a.u.) |
| CGAACCCCTCTGCACAGCCATTGGTATGGTATCTTGTTTCCGGAGTCACCTAGTGCAG | 8370 fluorescence intensity (a.u.) |
| ATTTTTTATTTCTTTTGTTTCAAATTTCAGTTCTTTTTATCGGAGTCACCTAGTGCAG | 9720 fluorescence intensity (a.u.) |
| ATATGCATAAATCACTGATTTGGTCATCTTTTTTCCTTGTCGGAGTCACCTAGTGCAG | 8360 fluorescence intensity (a.u.) |
| TCCACCTGGTTTCCTTTTTTGGCACCGTATTACTTTCCTACGGAGTCACCTAGTGCAG | 9930 fluorescence intensity (a.u.) |
